In all, about 400,000 compounds went through this assay and about 5,500 (1.4%) were called active. The inconclusive results got no clear call from the source; some entries with a clear call stand among them for comparison. The call rests on the fitted dose curve; in most records, active means well fitted cell-killing curve with a large enough effect; inconclusive means small, poorly fitted or top-dose-only effect, or effect the other way; inactive means flat fitted curve, though single readings scatter. Where the call is inconclusive, the potency comes from a doubtful curve fit.
Assay: qHTS assay for MDR1-selective chemotherapeutics: Primary screen using the parental adenocarcinoma cell KB-3-1; further: nearly all actives have a fitted effect of over 60% in size
Settings: KB-3-1 viability, CellTiter-Glo ATP luminescence, 72 h; activity change, negative = cytotoxic: at 46.1 µM (top of the series)
In short: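 Parental KB-3-1 adenocarcinoma cells in phenol-red-free DMEM with 10% FBS were pin-treated with compounds at several concentrations, incubated 72 h at 37 °C, and viability read by CellTiter-Glo luminescence; concentration-effect curves were fitted after normalization.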
On the % scale 0 is the no-effect control and ±100 the full control effect; potency means the concentration at half of the fitted maximal effect.

| Structure (SMILES) | Potency | activity change, negative = cytotoxic |
| --- | --- | --- |
| CCCC(C)C(=O)Nc1ccccc1C(=O)OCC (stereo not given) | inconclusive: 29.1 µM [cytotoxic, single point] | – |
| CCOc1cc2sc(N3CCC(C(=O)NCCCN4CCCC4=O)CC3)nc2cc1Br | – | inactive: -14.6% |
| CCCC1NC(=O)c2cccnc2-n2c1nc1ccc(OC)cc1c2=O (stereo not given) | – | inactive: 0% |
| Cc1c(C(=O)Nc2ccccn2)oc2ccc(Br)cc12 | inconclusive: 29.1 µM [cytotoxic, single point] | – |
| CC1=NN(C(=O)COc2ccc(C)c(C)c2)C(O)(c2ccc(Cl)cc2)C1 (stereo not given) | – | inactive: -5.62% |
| CCCn1c(NC(=O)c2ccc(Br)cc2)nc2ccccc21 | – | inactive: 3.35% |
| Cn1cc(-c2cc3n(n2)CCC(=O)N3CC(=O)NCc2ccc(Cl)cc2)c2ccccc21 | – | inactive: 4.02% |
| Cc1cccc2cc3c(N)c(C(=O)N4CCOCC4)sc3nc12 | active: 2.91 µM | – |
| Cc1ccc(NC(=O)c2c(-c3c(F)cccc3Cl)noc2C)cc1F | – | inactive: -1.1% |
| Nc1nc2ccccc2n1CCOc1ccc(F)cc1 | – | inactive: -11.4% |
| CCOC(=O)C1=C(C)NC(C)=C(C(=O)OCC)C1C(=O)OCC(=O)NCCc1ccccc1 | inconclusive: 29.1 µM [cytotoxic, partial curve, poor fit] | – |
| O=C(CN1CCN(c2ccccn2)CC1)N1c2ccccc2Sc2ccc(C(F)(F)F)cc21 | inconclusive: 22.4 µM [cytotoxic, single point] | – |
| Cc1ccc(S(=O)(=O)N(C)C)cc1NC(=O)COC(=O)/C=C/c1ccc2ccccc2n1 | inconclusive: 20.6 µM [cytotoxic, partial curve] | – |
| COc1cccc(/C=C2\SC(=S)N(CCC(=O)N3CCCCC3)C2=O)c1 | inconclusive: 18.4 µM [cytotoxic, partial curve, poor fit] | – |
| Cc1ccccc1-c1cc(C(=O)NCc2ccco2)n(CC2CC(c3cccnc3)=NO2)n1 (stereo not given) | inconclusive: 29.1 µM [cytotoxic, single point] | – |
| COc1c(C)cc(Br)cc1C(=O)Nc1cccc(-c2nc3ncccc3o2)c1 | inconclusive: 18.4 µM [cytotoxic, single point] | – |
| O=C(Nc1ccc(OC(F)(F)F)cc1)C1CCCCN1S(=O)(=O)c1ccccc1 (stereo not given) | inconclusive: 23.1 µM [cytotoxic, single point] | – |
| CC(C)(C)n1nnnc1C(c1cccs1)N(Cc1ccccc1)Cc1ccco1 (stereo not given) | inconclusive: 18.4 µM [cytotoxic, single point] | – |
| CCS(=O)(=O)N1Cc2ccccc2CC1C(=O)Nc1nc2ccccc2s1 (stereo not given) | – | inactive: 0.492% |
| O=C(c1cnc(N2CCCCC2)c2ccccc12)N1CCN(c2cccc(Cl)c2)CC1 | inconclusive: 18.4 µM [cytotoxic, single point] | – |

Whole records as entered above.
Cc1ccccc1-c1cc(C(=O)NCc2ccco2)n(CC2CC(c3cccnc3)=NO2)n1 (stereo not given) is entered as Potency: inconclusive: 29.1 µM [cytotoxic, single point]
Cc1cccc2cc3c(N)c(C(=O)N4CCOCC4)sc3nc12 is entered as Potency: active: 2.91 µM
